# Data from the supplement of paper PMC8728848.
# Some of the results follow.
# B1: TAL6-6LysM (Trichoderma atroviride) (protein)
# chain: AASKLGVPQPAQRDQVNCQLYAVQPNDNCIDISSKNNITYAQLLSWNPSLSSTCSNLASLNSSSICVSNPKGTFSISSNTVGATDIATTTAPVPSPTLDQTTSRCAKYYQVSDGDDCSHLTAQFAITLKDFIFLNSEVWQNCTNLELGYYYCVEPVGYISTYPGYLPTATTKPFNQTSATSLPYDGDPWARFSSNSSVIPIANGTRVDCYSYVYVKNLTENLFADCWNMASMYEITREELVLWNPSLGNDGSSGSNLSGAEASQVASSIAIPTTAPSSITTNLYTYPCTVAANISYCVALVSSTGALPTNTAPPGPHASGEISNCTAWFAPEAYDTCKSILDIFEMSFANFYKMNPSVGPDCSGLAVGTNYCVSTYPNGEDPNDDWDGDDSIPSISPTGIITPTPTQSGMVSNCNKFYDVHSNDGCSAIASSQHVDLSSLYKWNPAIKTDCSGLQASVYVCIGILTTSMSTTSKLPTTTSKPSTTSKPPTGITTPTPTQSGMVKNCNKFYDVHSGDGCSAIASSQKVNLSSFYLWNPAVKTDCSGLQASVFVCIGTLTTSMSTTTSKLPTTTSKPSTTSKPPTGIITPTPTQNGMVKNCNKFYDVHSGDGCSAIASSQKVNLSSFYLWNPAVKTDCSGLQASVFVCVGTATTTTAAGITTPTPTQSGMVSGCNKFYDVHAGDGCSAIASSQKIALSSLYKWNPAVKTDCSGLQASVYICIGVGNAAAARVTGAAASFLEQKLISEEDLNSAVDHHHHHH
# Columns and labels:
# Test in all cases: glycan array binding signal (z-score within array); higher = stronger binding
# Conditions in all cases: glycan notation: IUPAC condensed, linker removed
# [1] = biological target: Fuc(a1-2)Gal(b1-4)GlcNAc(b1-3)Gal(b1-4)GlcNAc(b1-3)Gal(b1-4)GlcNAc
# Method in brief: (§1)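 The Consortium for Functional Glycomics database supplied 3228 glycan arrays, of which those lacking an available protein sequence were dropped. The binding signal, a within-array Z-score, was averaged across arrays of the same protein sequence and across linkers. Negative scores can be read as non-binding.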
# [2] = biological target: Fuc(a1-2)Gal(b1-4)GlcNAc(b1-3)GalNAc
# Method in brief: as §1
# [3] = biological target: Fuc(a1-2)Gal(b1-4)GlcNAc(b1-3)[Fuc(a1-2)Gal(b1-4)GlcNAc(b1-6)]GalNAc
# Method in brief: as §1
# [4] = biological target: Fuc(a1-2)Gal(b1-4)GlcNAc(b1-3)[Fuc(a1-3)[Gal(b1-4)]GlcNAc(b1-6)]Gal(b1-4)Glc
# Method in brief: as §1
# [5] = biological target: Fuc(a1-2)Gal(b1-4)GlcNAc(b1-6)GalNAc
# Method in brief: as §1
# [6] = biological target: Fuc(a1-2)Gal(b1-4)GlcNAc6S
# Method in brief: as §1
# [7] = biological target: Fuc(a1-2)Gal(b1-4)[Fuc(a1-3)]GlcNAc
# Method in brief: as §1
# [8] = biological target: Fuc(a1-2)Gal(b1-4)[Fuc(a1-3)]GlcNAc(b1-2)Man(a1-3)[Fuc(a1-2)Gal(b1-4)[Fuc(a1-3)]GlcNAc(b1-2)Man(a1-6)]Man(b1-4)GlcNAc(b1-4)[Fuc(a1-6)]GlcNAc
# Method in brief: as §1
# [9] = biological target: Fuc(a1-2)Gal(b1-4)[Fuc(a1-3)]GlcNAc(b1-2)[Fuc(a1-2)Gal(b1-4)[Fuc(a1-3)]GlcNAc(b1-4)]Man(a1-3)[Fuc(a1-2)Gal(b1-4)[Fuc(a1-3)]GlcNAc(b1-2)Man(a1-6)]Man(b1-4)GlcNAc(b1-4)GlcNAc
# Method in brief: as §1
# [10] = biological target: Fuc(a1-2)Gal(b1-4)[Fuc(a1-3)]GlcNAc(b1-3)Gal(b1-4)[Fuc(a1-3)]GlcNAc
# Method in brief: as §1
# [11] = biological target: Fuc(a1-2)Gal(b1-4)[Fuc(a1-3)]GlcNAc(b1-3)Gal(b1-4)[Fuc(a1-3)]GlcNAc(b1-3)Gal(b1-4)[Fuc(a1-3)]GlcNAc
# Method in brief: as §1
# [12] = biological target: Fuc(a1-2)Gal(b1-4)[Fuc(a1-3)]GlcNAc(b1-3)GalNAc
# Method in brief: as §1
# [13] = biological target: Fuc(a1-2)Gal(b1-4)[Fuc(a1-3)]GlcNAc(b1-3)[Neu5Ac(a2-6)Gal(b1-4)GlcNAc(b1-6)]Gal(b1-4)Glc
# Method in brief: as §1
# [14] = biological target: Fuc(a1-2)Gal3S(b1-4)GlcNAc
# Method in brief: as §1
# [15] = biological target: Fuc(a1-2)Gal6S(b1-3)GlcNAc
# Method in brief: as §1
# [16] = biological target: Fuc(a1-2)Gal6S(b1-3)GlcNAc6S
# Method in brief: as §1
# Fuc(a1-2)Gal6S(b1-4)Glc = biological target: Fuc(a1-2)Gal6S(b1-4)Glc
# Method in brief: as §1
# [17] = biological target: Fuc(a1-2)Gal6S(b1-4)Glc6S
# Method in brief: as §1
# Fuc(a1-2)[Gal(a1-3)]Gal = biological target: Fuc(a1-2)[Gal(a1-3)]Gal
# Method in brief: as §1
# [18] = biological target: Fuc(a1-2)[Gal(a1-3)]Gal(b1-3)GalNAc
# Method in brief: as §1
# [19] = biological target: Fuc(a1-2)[Gal(a1-3)]Gal(b1-3)GalNAc(b1-3)Gal(a1-4)Gal(b1-4)Glc
# Method in brief: as §1
# [20] = biological target: Fuc(a1-2)[Gal(a1-3)]Gal(b1-3)GlcNAc
# Method in brief: as §1
# [21] = biological target: Fuc(a1-2)[Gal(a1-3)]Gal(b1-3)GlcNAc(b1-2)Man(a1-3)[Fuc(a1-2)[Gal(a1-3)]Gal(b1-3)GlcNAc(b1-2)Man(a1-6)]Man(b1-4)GlcNAc(b1-4)GlcNAc
# Method in brief: as §1
# [22] = biological target: Fuc(a1-2)[Gal(a1-3)]Gal(b1-3)GlcNAc(b1-2)Man(a1-3)[Fuc(a1-2)[Gal(a1-3)]Gal(b1-3)GlcNAc(b1-2)Man(a1-6)]Man(b1-4)GlcNAc(b1-4)[Fuc(a1-6)]GlcNAc
# Method in brief: as §1
# [23] = biological target: Fuc(a1-2)[Gal(a1-3)]Gal(b1-3)GlcNAc(b1-3)GalNAc
# Method in brief: as §1
# [24] = biological target: Fuc(a1-2)[Gal(a1-3)]Gal(b1-3)GlcNAc(b1-6)GalNAc
# Method in brief: as §1
# [25] = biological target: Fuc(a1-2)[Gal(a1-3)]Gal(b1-4)Glc
# Method in brief: as §1
# [26] = biological target: Fuc(a1-2)[Gal(a1-3)]Gal(b1-4)GlcNAc
# Method in brief: as §1
# [27] = biological target: Fuc(a1-2)[Gal(a1-3)]Gal(b1-4)GlcNAc(b1-2)Man
# Method in brief: as §1
# [28] = biological target: Fuc(a1-2)[Gal(a1-3)]Gal(b1-4)GlcNAc(b1-2)Man(a1-3)[Fuc(a1-2)[Gal(a1-3)]Gal(b1-4)GlcNAc(b1-2)Man(a1-6)]Man(b1-4)GlcNAc(b1-4)GlcNAc
# Method in brief: as §1
binder,measurement,setting,value
B1,glycan array binding signal (z-score),[1],0.084
same,glycan array binding signal (z-score),[2],0.064
same,glycan array binding signal (z-score),[3],-0.205
same,glycan array binding signal (z-score),[4],0.428
same,glycan array binding signal (z-score),[5],3.12
same,glycan array binding signal (z-score),[6],0.291
same,glycan array binding signal (z-score),[7],-0.196
same,glycan array binding signal (z-score),[8],0.008
same,glycan array binding signal (z-score),[9],-0.207
same,glycan array binding signal (z-score),[10],-0.762
same,glycan array binding signal (z-score),[11],2.68
same,glycan array binding signal (z-score),[12],1.62
same,glycan array binding signal (z-score),[13],1.82
same,glycan array binding signal (z-score),[14],0.064
same,glycan array binding signal (z-score),[15],-0.396
same,glycan array binding signal (z-score),[16],1.45
same,glycan array binding signal (z-score),Fuc(a1-2)Gal6S(b1-4)Glc,-0.385
same,glycan array binding signal (z-score),[17],0.326
same,glycan array binding signal (z-score),Fuc(a1-2)[Gal(a1-3)]Gal,0.612
same,glycan array binding signal (z-score),[18],-0.805
same,glycan array binding signal (z-score),[19],0.209
same,glycan array binding signal (z-score),[20],1.38
same,glycan array binding signal (z-score),[21],-0.506
same,glycan array binding signal (z-score),[22],-1.23
same,glycan array binding signal (z-score),[23],-0.133
same,glycan array binding signal (z-score),[24],0.723
same,glycan array binding signal (z-score),[25],0.491
same,glycan array binding signal (z-score),[26],1.2
same,glycan array binding signal (z-score),[27],-0.907
same,glycan array binding signal (z-score),[28],0.478

# Pulled one by one from the entries so far, two records:
binder,measurement,setting,value
B1,glycan array binding signal (z-score),Fuc(a1-2)Gal6S(b1-4)Glc,-0.385
same,glycan array binding signal (z-score),[2],0.064
